Values from PubChem BioAssay AID743121 (NCATS, 2013).
Aim: 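Partners whose loss is lethal together with topoisomerase I blockade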 (primary screen). Cells: MDA-MB-231 cells, a human breast cancer line. Reagents: single siRNA against human genes, 20 nM siRNA (0.8 pmol per well). Timing: 120 h (drug added 48 h after transfection, read 72 h later). Treatment: camptothecin 20 nM (about EC30) for 72 h; vehicle 0.1% DMSO in parallel plates. Detection: 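CellTiter-Glo ATP signal, scaled to control siRNA as percent viability; sensitisation given as log2 of untreated divided by camptothecin-treated viability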. Direction: log2 vehicle/camptothecin viability: higher = stronger sensitisation to camptothecin. Call rule: 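Each gene scored by redundant siRNA activity (RSA) over its individual siRNA ratios; a gene is called active at p < 0.001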.
Here is a random part of about 26,000 reagents. 167 of them (0.63%) were called active. 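Calls are per gene from RSA p-values that are not deposited; an individual active-marked siRNA can sensitise only weakly.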 Reagents against one gene are numbered here. Further read-outs or replicates are left out here. Reagent sequences are not shown.

Knock-down of ADAMTS17 #1 resulted in: log2 vehicle/camptothecin viability -0.502; inactive.
ADAMTS17 #2 showed log2 vehicle/camptothecin viability -0.377; inactive.
For ADAMTS17 #3, the values are log2 vehicle/camptothecin viability 0.0584; inactive.
Against ADAMTS17 #4 the deposit lists log2 vehicle/camptothecin viability -0.037; inactive.
After knock-down of UBLCP1 #1, the record shows log2 vehicle/camptothecin viability -0.45; inactive.
After knock-down of UBLCP1 #2 the results were log2 vehicle/camptothecin viability 0.0468; inactive.
UBLCP1 #3 scored log2 vehicle/camptothecin viability 0.0392; inactive.
After knock-down of UBLCP1 #4 the results were log2 vehicle/camptothecin viability 0.19; inactive.
CCR5 #1 gave log2 vehicle/camptothecin viability -0.2; inactive.
Against CCR5 #2, the values are log2 vehicle/camptothecin viability -0.377; inactive.
Against CCR5 #3 the deposit lists log2 vehicle/camptothecin viability -0.584; inactive.
CCR5 #4 scored log2 vehicle/camptothecin viability -0.389; inactive.
After knock-down of CCR5 #5, the screen gave log2 vehicle/camptothecin viability -0.0401; inactive.
For CCR5 #6, the entry reads log2 vehicle/camptothecin viability -0.544; inactive.
With knock-down of CCR5 #7 the results were log2 vehicle/camptothecin viability -0.59; inactive.
MS4A1 #1 gave log2 vehicle/camptothecin viability -0.0251; inactive.
With knock-down of MS4A1 #2, the screen gave log2 vehicle/camptothecin viability 0.0936; inactive.
Silencing of MS4A1 #3 gave: log2 vehicle/camptothecin viability 0.175; inactive.
For LTBP4 #1 the deposit lists log2 vehicle/camptothecin viability 0.214; inactive.
LTBP4 #2 showed log2 vehicle/camptothecin viability -0.13; inactive.
Knock-down of LTBP4 #3 resulted in: log2 vehicle/camptothecin viability -0.133; inactive.
After knock-down of LTBP4 #4, the record shows log2 vehicle/camptothecin viability -0.382; inactive.
YWHAEP1 showed log2 vehicle/camptothecin viability 0.149; inactive.

Not a retest: an excerpt of the list.
UBLCP1 #3 — log2 vehicle/camptothecin viability = 0.0392; call = inactive
UBLCP1 #4 — log2 vehicle/camptothecin viability = 0.19; call = inactive
CCR5 #1 — log2 vehicle/camptothecin viability = -0.2; call = inactive
CCR5 #2 — log2 vehicle/camptothecin viability = -0.377; call = inactive
CCR5 #3 — log2 vehicle/camptothecin viability = -0.584; call = inactive
CCR5 #4 — log2 vehicle/camptothecin viability = -0.389; call = inactive
CCR5 #5 — log2 vehicle/camptothecin viability = -0.0401; call = inactive
CCR5 #6 — log2 vehicle/camptothecin viability = -0.544; call = inactive

Further reagents:
After knock-down of USP4 #1, the record shows log2 vehicle/camptothecin viability -0.0457; inactive.
USP4 #2 scored log2 vehicle/camptothecin viability -0.472; inactive.
Depletion of USP4 #3 came out at: log2 vehicle/camptothecin viability -0.0659; inactive.
Knock-down of USP4 #4 came out at: log2 vehicle/camptothecin viability -0.156; inactive.
After knock-down of CAPNS1 #1, the screen gave log2 vehicle/camptothecin viability -0.313; inactive.
Against CAPNS1 #2, the entry reads log2 vehicle/camptothecin viability -0.159; inactive.
After knock-down of CAPNS1 #3 the results were log2 vehicle/camptothecin viability -0.712; inactive.
CAPNS1 #4 showed log2 vehicle/camptothecin viability -0.282; inactive.
THEM4 #1 scored log2 vehicle/camptothecin viability -0.219; inactive.
THEM4 #2 scored log2 vehicle/camptothecin viability -0.307; inactive.
Silencing of THEM4 #3 resulted in: log2 vehicle/camptothecin viability -0.189; inactive.
For THEM4 #4, the entry reads log2 vehicle/camptothecin viability -0.0694; inactive.
With knock-down of ABCD2 #1, the screen gave log2 vehicle/camptothecin viability -0.103; inactive.
With knock-down of ABCD2 #2, the screen gave log2 vehicle/camptothecin viability -0.21; inactive.
ABCD2 #3 showed log2 vehicle/camptothecin viability -0.286; inactive.
With knock-down of ABCD2 #4, the record shows log2 vehicle/camptothecin viability -0.811; inactive.
Against BIRC6 #1, the entry reads log2 vehicle/camptothecin viability -0.103; inactive.
Depletion of BIRC6 #2 gave: log2 vehicle/camptothecin viability -0.0247; inactive.
For BIRC6 #3 the deposit lists log2 vehicle/camptothecin viability -0.196; inactive.
BIRC6 #4 gave log2 vehicle/camptothecin viability -0.612; inactive.
Silencing of XCL1 #1 gave: log2 vehicle/camptothecin viability -0.411; inactive.
XCL1 #2 gave log2 vehicle/camptothecin viability -0.0462; inactive.
With knock-down of XCL1 #3, the screen gave log2 vehicle/camptothecin viability -0.0206; inactive.
XCL1 #4 gave log2 vehicle/camptothecin viability -0.144; inactive.
After knock-down of XCL1 #5, the screen gave log2 vehicle/camptothecin viability 0.135; inactive.
For XCL1 #6 the deposit lists log2 vehicle/camptothecin viability -0.424; inactive.
Depletion of XCL1 #7 gave: log2 vehicle/camptothecin viability 0.825; inactive.
With knock-down of XCL1 #8 the results were log2 vehicle/camptothecin viability -0.352; inactive.
